# Reference: PMC7819943, “Rice protein-binding microarrays: a tool to detect cis-acting elements near promoter regions in rice”
# Amino acid sequences for entries named in this document (tags omitted).
# UniProt Q0JBA9, entry or part of it: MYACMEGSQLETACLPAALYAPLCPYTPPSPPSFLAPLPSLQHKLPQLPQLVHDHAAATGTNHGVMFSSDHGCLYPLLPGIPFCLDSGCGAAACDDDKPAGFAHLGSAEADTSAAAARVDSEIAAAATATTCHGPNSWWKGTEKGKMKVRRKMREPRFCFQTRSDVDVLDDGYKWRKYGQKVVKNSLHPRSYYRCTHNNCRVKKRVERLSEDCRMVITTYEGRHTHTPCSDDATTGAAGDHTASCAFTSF
# The list shows a part of the results.
# Molecular target: OsWRKY34 (Oryza sativa, UniProt Q0JBA9 1-250)
# Experiment: protein-binding microarray (RPBM); PBS, 2% BSA, 51.3 ng/ul salmon testes DNA, 50 uM zinc acetate, 200 nM TF, 25 C, 1 h; high values mean tight binding
# Details: protein: recombinant; tags: N-terminal polyhistidine and DsRed monomer fusion (pET32a); label: CyDye5-dUTP incorporated in the synthesized complementary strand; 3' TTTTT single-stranded linker to array surface; dsDNA, one strand shown
# Method in brief: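 In PBS with 2% BSA, salmon testes DNA and 50 µM zinc acetate, 200 nM protein was incubated on a custom Agilent array at 25 °C for 1 h and then washed off. The array had been made double-stranded by primer extension with Cy5-dUTP and blocked with 2% BSA. The proteins were transcription factors fused N-terminally to polyhistidine and DsRed, expressed in E. coli BL21-CodonPlus and purified on Ni–NTA. The binding signal is per-feature fluorescence intensity (arbitrary units) from an Axon 4000B scanner.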
row,Sequence,binding signal
1,CCCCTCGCCTGAGTGCGTGCGCCCGCGGCCGCGCCTCCGCCGGAGTCACCTAGTGCAG,8070 fluorescence intensity (a.u.)
2,GAACTAGCGTCAAATCACATCGAGACAACATGCGGGCTTTCGGAGTCACCTAGTGCAG,8800 fluorescence intensity (a.u.)
3,GTGTGGCGGACATGTGGGCCCATGATTTTTATTATTTTTCCGGAGTCACCTAGTGCAG,9790 fluorescence intensity (a.u.)
4,TTATCAAATTTCTCCCACACGGTTAGTTTCGGCCCATCTACGGAGTCACCTAGTGCAG,8170 fluorescence intensity (a.u.)
5,GTCTACTGCTTCACTTCACTTTCACAGTTTCACTGTATGACGGAGTCACCTAGTGCAG,9060 fluorescence intensity (a.u.)
6,CCTCGTAGCTTTCCATTCCTGGCCACCCATCACTGCCGGACGGAGTCACCTAGTGCAG,9970 fluorescence intensity (a.u.)
7,ATCTAAAGCACACTTACATATGCGTATCATTCTTGGTTATCGGAGTCACCTAGTGCAG,8250 fluorescence intensity (a.u.)
8,CCATCACTAGAGCCTTTTGCCTTTGCTTGCACAATTACATCGGAGTCACCTAGTGCAG,8850 fluorescence intensity (a.u.)
9,CCATGTCGCACTCTTTCTCGCCGGGCCCACACAACACGGCCGGAGTCACCTAGTGCAG,12600 fluorescence intensity (a.u.)
10,CGTCTCTTTTATCCTTCTTTTTTTTCCCATTTTTCTTTTTCGGAGTCACCTAGTGCAG,11900 fluorescence intensity (a.u.)
11,GATTTGATAATGTGGTGCTACAGTATACTTTGCTAATGACCGGAGTCACCTAGTGCAG,9710 fluorescence intensity (a.u.)
12,GGTCTTGGTTTCGTCAGCGCCATGGTGTTGTGTGACTTGTCGGAGTCACCTAGTGCAG,9490 fluorescence intensity (a.u.)
13,GCTTGTACTCTCCTGGTCCTGGCGTCCTGCCGTCCTTGGCCGGAGTCACCTAGTGCAG,10600 fluorescence intensity (a.u.)
14,CCCTGAGGCACACGGCGCACTCCTCCTGCCTCGCGTCGCACGGAGTCACCTAGTGCAG,8120 fluorescence intensity (a.u.)
15,CCCAAAATGCCCCACTACATGCGCCACGCCGCGCGCTTCCCGGAGTCACCTAGTGCAG,9300 fluorescence intensity (a.u.)
16,ACACACAACTTTTCAGTCATATCGTACCAATTTCAACCCACGGAGTCACCTAGTGCAG,10500 fluorescence intensity (a.u.)
17,TGAGTGTTTGGTGCGTGTGGTTTCTTGGGAGATCATGTTACGGAGTCACCTAGTGCAG,11100 fluorescence intensity (a.u.)
18,GAACACTTAACTCGTTTTCACCGGATATGTTCTCGTAGTTCGGAGTCACCTAGTGCAG,9800 fluorescence intensity (a.u.)
19,CCTCAACCCTTCGTGTTATCTAGTGTCCATATCATTAAATCGGAGTCACCTAGTGCAG,9210 fluorescence intensity (a.u.)
20,GAACGGTCAAACATGTTTAAAAAAGTCAACGGCGTCAAACCGGAGTCACCTAGTGCAG,14000 fluorescence intensity (a.u.)
21,GAATCCACCGCATTTTTCCGCCGCCCCACGCGGCGCCACCCGGAGTCACCTAGTGCAG,19700 fluorescence intensity (a.u.)

row,Sequence,binding signal
1,CCACCTATCATACTCTTCTTCCCTATTCCTCTCTCTCTTCCGGAGTCACCTAGTGCAG,8600 fluorescence intensity (a.u.)
2,ATGTTGTTCTCTTAATTTTATTTTACACTATCACACCATTCGGAGTCACCTAGTGCAG,9440 fluorescence intensity (a.u.)
3,CTGACACTGACACTAAGTTCAGTCTTGTACGTTATTTGCACGGAGTCACCTAGTGCAG,8450 fluorescence intensity (a.u.)
4,GTCCCCTTTCCTCTCGCCGCCGACCTCGTCGGCCGTCTCCCGGAGTCACCTAGTGCAG,8330 fluorescence intensity (a.u.)
5,CCGGTTTATGTCTTTGTTGCAAACCACATCACCACGAGTTCGGAGTCACCTAGTGCAG,10900 fluorescence intensity (a.u.)
6,TATATGTATTCTGACTAATTAGTGTTATTTTTGTTGATCACGGAGTCACCTAGTGCAG,8930 fluorescence intensity (a.u.)
7,AGGGTTTTTTTTGTCACTTTCGTTGTCAGTTTCTTTTTTCCGGAGTCACCTAGTGCAG,14100 fluorescence intensity (a.u.)
8,GCCACCAATAACACATCGCCACCTCGCAGTCGCATCGTCACGGAGTCACCTAGTGCAG,9520 fluorescence intensity (a.u.)
9,TTTGCCCGATTTTTGATTTTTGTTTTTTTTGGGTTCTTGGCGGAGTCACCTAGTGCAG,9680 fluorescence intensity (a.u.)
10,CGCTGGTTCGGCTCCTTCGCTCGGCTCGGCTCCGCCACCGCGGAGTCACCTAGTGCAG,8970 fluorescence intensity (a.u.)
11,GTTCTCTTAATTAACTTGGGTTAAAATTTTTATCTCTCTCCGGAGTCACCTAGTGCAG,8160 fluorescence intensity (a.u.)
12,TTCGGTTGCACGCTCGCTTGTCTGGTTGTTGATCGATCGACGGAGTCACCTAGTGCAG,11100 fluorescence intensity (a.u.)
13,GCATATTTGTTTCTTTGTGTTCCCTTGTCGAGAGCTTGTCCGGAGTCACCTAGTGCAG,8970 fluorescence intensity (a.u.)
14,ATCTTCGCGCATCCCCACATCGCCGCGCCCGCTCCACTCTCGGAGTCACCTAGTGCAG,9760 fluorescence intensity (a.u.)
15,GTCACCATGTGAACACGTATGCTTCTCTTCATTCATTCTTCGGAGTCACCTAGTGCAG,9200 fluorescence intensity (a.u.)
16,GACTCTTTGTCTCTTCGGGTCTTCTTTTACCTACATTGTCCGGAGTCACCTAGTGCAG,11300 fluorescence intensity (a.u.)
17,TTCCTCCACAACATCCTCATCCGCGCCTCCGCCTCCTCCGCGGAGTCACCTAGTGCAG,9350 fluorescence intensity (a.u.)
18,CTCCATTCCGTTCCCTATTCTTCGAAAGGTGCCGATACCCCGGAGTCACCTAGTGCAG,11400 fluorescence intensity (a.u.)
19,GTGCGCCGCCACCGCCCGCCCCACCGCCGCCGCCGCCCACCGGAGTCACCTAGTGCAG,11000 fluorescence intensity (a.u.)
20,AAATTCCAAGCCAAGGCCCTCGTCTCGTCTCGCACTCTCGCGGAGTCACCTAGTGCAG,9050 fluorescence intensity (a.u.)
21,GTACACATGTTTCAGATGGATATATCATGCACACTGACTACGGAGTCACCTAGTGCAG,9090 fluorescence intensity (a.u.)

# A few values from the list:
# binding signal, GAACACTTAACTCGTTTTCACCGGATATGTTCTCGTAGTTCGGAGTCACCTAGTGCAG reads 9800 fluorescence intensity (a.u.)
# binding signal, CCATGTCGCACTCTTTCTCGCCGGGCCCACACAACACGGCCGGAGTCACCTAGTGCAG reads 12600 fluorescence intensity (a.u.)

# Not a retest: an excerpt of the list.
row,Sequence,binding signal
15,GTCACCATGTGAACACGTATGCTTCTCTTCATTCATTCTTCGGAGTCACCTAGTGCAG,9200 fluorescence intensity (a.u.)
16,GACTCTTTGTCTCTTCGGGTCTTCTTTTACCTACATTGTCCGGAGTCACCTAGTGCAG,11300 fluorescence intensity (a.u.)
17,TTCCTCCACAACATCCTCATCCGCGCCTCCGCCTCCTCCGCGGAGTCACCTAGTGCAG,9350 fluorescence intensity (a.u.)

# (listing goes on)

row,Sequence,binding signal
1,TTGACGTGTAAGGAGCTGTAATTTGTTGTCATCATAATTGCGGAGTCACCTAGTGCAG,8490 fluorescence intensity (a.u.)
2,ATCCTACCACAATCCTCATCGCCGTTTGATCGTCAGACCACGGAGTCACCTAGTGCAG,9620 fluorescence intensity (a.u.)
3,GACTTATATTTACAATATCTTATTAAACATTGCTTGTGTTCGGAGTCACCTAGTGCAG,8560 fluorescence intensity (a.u.)
4,AGAAAAGCTCTACATGCATGTCTATTCCAGTGATTTCTGACGGAGTCACCTAGTGCAG,8320 fluorescence intensity (a.u.)
5,GATTAACTCACAGTTGTACCCTCATTTTTGTTTGGCTGATCGGAGTCACCTAGTGCAG,9730 fluorescence intensity (a.u.)
6,AATTTCCACCCTCTGAACTTTCAGCATTGTTCTTGTATTCCGGAGTCACCTAGTGCAG,8810 fluorescence intensity (a.u.)
7,GGTGGGGCCGGGGCGGCAGTGAGTACAAAAGCAAAAGGGTCGGAGTCACCTAGTGCAG,8620 fluorescence intensity (a.u.)
8,ATCATCTATAAAAATCACTTGTCTCGCTGTTAAATAGTCACGGAGTCACCTAGTGCAG,8070 fluorescence intensity (a.u.)
9,CAGTAAGTTGTTTTCTAGTAGCATCAATGTTAAAATTCCTCGGAGTCACCTAGTGCAG,8520 fluorescence intensity (a.u.)
10,GCACGTGAGATCCTCACCCGCGCTCCCCAACGGCTATATTCGGAGTCACCTAGTGCAG,9300 fluorescence intensity (a.u.)
11,GCCATTCACCATACGGTAAGCGCCTGCGCCGCCGCTTCTTCGGAGTCACCTAGTGCAG,9870 fluorescence intensity (a.u.)
12,CCTCGTTAACTGCAACCCATCGATTGCCACATCTACACCTCGGAGTCACCTAGTGCAG,10300 fluorescence intensity (a.u.)
13,CTCGCTCGCCAATTCGCCATGATCGGGTGGGGCTCCGCTACGGAGTCACCTAGTGCAG,10000 fluorescence intensity (a.u.)
14,ACTGGTTGTGCTCTTTAATTATCACTTTATGCGCACTTTTCGGAGTCACCTAGTGCAG,8270 fluorescence intensity (a.u.)
15,AGCAACCTTTTGTCAGATCCTCCGCCACCAAGCTCATGCCCGGAGTCACCTAGTGCAG,9420 fluorescence intensity (a.u.)
16,TGTAGTGATGGGAGCGCGTGGAGTGGAATTGACTAGTACTCGGAGTCACCTAGTGCAG,8100 fluorescence intensity (a.u.)
17,ACCTGCCGCCGCTGCCGCATCCGCCGCCACCACGACCAACCGGAGTCACCTAGTGCAG,8620 fluorescence intensity (a.u.)
18,AGCTTCAGATTGGCAAGTTCAACATGTGTTTTTAGTTAGTCGGAGTCACCTAGTGCAG,8530 fluorescence intensity (a.u.)
19,TCTGCTTGCTTGCCTGCCACTGTGCCACTGCCGACCAATCCGGAGTCACCTAGTGCAG,8740 fluorescence intensity (a.u.)
20,GCTACCACACGCCACCTCTCCTCGCCATTCGCTGCGCTCGCGGAGTCACCTAGTGCAG,9390 fluorescence intensity (a.u.)
21,ATCTCGGTCTCTCACAAGACACACAGCTAATTAGCTCTATCGGAGTCACCTAGTGCAG,8470 fluorescence intensity (a.u.)

row,Sequence,binding signal
1,CATTCATTTTCGTGAAACTCTTTTAGCTCCTTGCAATTTTCGGAGTCACCTAGTGCAG,9370 fluorescence intensity (a.u.)
2,ATCCTTTGACACATCATCAGCTGCCGCTTAAGCAATCGAGCGGAGTCACCTAGTGCAG,9100 fluorescence intensity (a.u.)
3,GGCAGCACAGAATTGTTTTCCCTTTCGATCGATCAAGATGCGGAGTCACCTAGTGCAG,8700 fluorescence intensity (a.u.)
4,GGGTTATTCTGGTAAAATCGCATCAACATAGCTTCTTATACGGAGTCACCTAGTGCAG,8490 fluorescence intensity (a.u.)
5,GTGGCAATGCAAACTCGTCTTGGAACCCACTGCTTTGCCTCGGAGTCACCTAGTGCAG,8192 fluorescence intensity (a.u.)
6,TGTTTTTCATGCCGCGCCATACTATTATGCTAGACACACGCGGAGTCACCTAGTGCAG,8030 fluorescence intensity (a.u.)
7,GAATGGGGATGGGGAATTGAGGAATAAACTCCCTCCTTTTCGGAGTCACCTAGTGCAG,13100 fluorescence intensity (a.u.)
8,GCATATTGTACTTTACTGTCACCTGGTATGTAATTCGCTCCGGAGTCACCTAGTGCAG,11900 fluorescence intensity (a.u.)
9,CTTCTCGCATCCGTGTCTTCATCCTTGATCCTCCACTCTCCGGAGTCACCTAGTGCAG,9370 fluorescence intensity (a.u.)
10,GGTCGTGGCACGCTCAGGGGAGGGGCTCCCGGCGGGAATGCGGAGTCACCTAGTGCAG,8420 fluorescence intensity (a.u.)
11,TACCTCTATCCTCTAATATAAGGGATATTCACTATTTTCACGGAGTCACCTAGTGCAG,9080 fluorescence intensity (a.u.)
12,CTCACTTTCAGTCGGTTGGTCGGTTCTTGTGCTCATTGCCCGGAGTCACCTAGTGCAG,9180 fluorescence intensity (a.u.)
13,GGTTGGGGTAGGAGTCGATGGATGGCCCACCTGTCAGGGACGGAGTCACCTAGTGCAG,8120 fluorescence intensity (a.u.)
14,TTAATGTGCTTGTAGAAAGTGTCCAATTTTTAAAAATTGCCGGAGTCACCTAGTGCAG,8330 fluorescence intensity (a.u.)
15,TTTTGTTCTTGTTCGTTGAGTTTTTCACTTTGCTCTAATCCGGAGTCACCTAGTGCAG,8690 fluorescence intensity (a.u.)
16,GGGCGGCAGGGTCTATTTTTGTAAATTTTTTTTGCCGATACGGAGTCACCTAGTGCAG,12300 fluorescence intensity (a.u.)
17,GCACCTTCCGCGAAGCTTCCTCTCCTGCCTGCGCGTTGACCGGAGTCACCTAGTGCAG,14600 fluorescence intensity (a.u.)
18,GCGGGAGGGCGGGGCCCCGGTGTGCAGGTGCTGGCGGACGCGGAGTCACCTAGTGCAG,8140 fluorescence intensity (a.u.)
19,CGCTCACTCTCGCGCGCGCGCACACACTCGCATCGTCGCACGGAGTCACCTAGTGCAG,11900 fluorescence intensity (a.u.)
20,AACATTTGTTTCACTCGTTGGTCAACTACAACATTTGACCCGGAGTCACCTAGTGCAG,9450 fluorescence intensity (a.u.)
21,CTTTTGTATCGCACGCCACAACACCATGCATTTAATTGGTCGGAGTCACCTAGTGCAG,9880 fluorescence intensity (a.u.)
